Test results from patent US20120041012A1, “SUBSTITUTED SPIROCYCLIC AMINES USEFUL AS ANTIDIABETIC COMPOUNDS” (priority 2009, published 2012).
Some results were stated once for a whole list of compounds, not compound by compound. At least one compound was matched to its structure with a doubt left. Some ranges recur; such a range may be that of the whole group of compounds.

Protein sequences, listed by entry. Tags and fused reporters are not part of them. Lines headed by an entry give the natural chain unless they say otherwise; changes in a name come on top.
UniProt P30872: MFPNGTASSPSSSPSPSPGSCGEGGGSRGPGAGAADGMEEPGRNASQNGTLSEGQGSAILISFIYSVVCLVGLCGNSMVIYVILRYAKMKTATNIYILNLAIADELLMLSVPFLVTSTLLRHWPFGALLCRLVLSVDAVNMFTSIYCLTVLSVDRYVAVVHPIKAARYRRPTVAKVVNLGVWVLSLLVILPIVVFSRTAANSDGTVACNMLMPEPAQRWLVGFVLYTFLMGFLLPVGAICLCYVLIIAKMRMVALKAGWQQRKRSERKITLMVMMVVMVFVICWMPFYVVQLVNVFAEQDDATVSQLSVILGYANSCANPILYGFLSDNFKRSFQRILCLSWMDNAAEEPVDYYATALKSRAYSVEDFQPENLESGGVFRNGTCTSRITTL
UniProt P35346: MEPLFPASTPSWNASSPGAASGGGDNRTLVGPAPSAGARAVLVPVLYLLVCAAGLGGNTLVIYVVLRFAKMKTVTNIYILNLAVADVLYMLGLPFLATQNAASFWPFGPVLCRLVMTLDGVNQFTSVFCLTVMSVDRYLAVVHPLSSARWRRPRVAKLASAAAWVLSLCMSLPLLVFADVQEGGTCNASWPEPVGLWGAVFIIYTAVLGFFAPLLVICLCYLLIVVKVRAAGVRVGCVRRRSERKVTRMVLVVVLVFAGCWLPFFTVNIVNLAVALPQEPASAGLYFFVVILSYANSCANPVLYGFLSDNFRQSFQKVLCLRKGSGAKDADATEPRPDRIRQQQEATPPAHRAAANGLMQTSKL
UniProt P32745: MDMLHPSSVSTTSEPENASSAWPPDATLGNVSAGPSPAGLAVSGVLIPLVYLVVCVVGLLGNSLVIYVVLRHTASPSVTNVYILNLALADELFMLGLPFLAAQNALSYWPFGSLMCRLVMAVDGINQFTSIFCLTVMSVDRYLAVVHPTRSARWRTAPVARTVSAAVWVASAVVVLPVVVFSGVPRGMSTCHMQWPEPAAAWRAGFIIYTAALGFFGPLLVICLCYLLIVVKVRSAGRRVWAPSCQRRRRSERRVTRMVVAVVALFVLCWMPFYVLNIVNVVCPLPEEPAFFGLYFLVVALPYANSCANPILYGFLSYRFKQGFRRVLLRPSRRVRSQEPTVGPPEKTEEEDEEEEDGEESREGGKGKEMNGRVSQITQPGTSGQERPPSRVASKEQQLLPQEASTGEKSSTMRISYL
UniProt P30874: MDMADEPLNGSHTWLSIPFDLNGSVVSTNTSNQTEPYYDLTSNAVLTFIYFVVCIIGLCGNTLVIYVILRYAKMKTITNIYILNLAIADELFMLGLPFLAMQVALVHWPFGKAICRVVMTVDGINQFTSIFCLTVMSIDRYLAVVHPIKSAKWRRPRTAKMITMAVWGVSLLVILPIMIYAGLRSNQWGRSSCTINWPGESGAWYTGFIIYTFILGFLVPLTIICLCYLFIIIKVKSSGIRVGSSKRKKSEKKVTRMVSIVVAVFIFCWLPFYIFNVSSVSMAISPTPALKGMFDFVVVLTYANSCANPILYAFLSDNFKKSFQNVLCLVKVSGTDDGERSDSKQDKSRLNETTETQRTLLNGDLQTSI
UniProt P31391: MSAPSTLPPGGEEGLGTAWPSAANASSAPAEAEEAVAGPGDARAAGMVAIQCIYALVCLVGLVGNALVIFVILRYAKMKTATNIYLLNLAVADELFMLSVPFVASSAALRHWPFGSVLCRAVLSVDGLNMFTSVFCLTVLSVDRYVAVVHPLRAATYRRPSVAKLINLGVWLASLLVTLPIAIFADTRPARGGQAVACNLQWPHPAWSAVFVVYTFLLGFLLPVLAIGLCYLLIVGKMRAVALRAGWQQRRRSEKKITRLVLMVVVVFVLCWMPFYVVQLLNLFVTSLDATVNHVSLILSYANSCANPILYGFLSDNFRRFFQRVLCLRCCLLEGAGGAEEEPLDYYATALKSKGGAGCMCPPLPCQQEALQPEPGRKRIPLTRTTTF

What was measured:
SSTR1 [1] = target: T1, SSTR1 (Homo sapiens, UniProt P30872); assay: SSTR1 receptor-ligand binding assay, CHO-K1 cell membranes; parameters: expressed in transfected cells; host or cells: CHO-K1 (membranes); conditions: text b424; read-out: Ki values against SSTR1
SSTR5 [2] = target: T2, SSTR5 (Homo sapiens, UniProt P35346); assay: Functional assay of SSTR5 mediated cyclic AMP production in SSTR5 expressing CHO cells; type: cell-based, human or mouse; conditions: text b428; read-out: cAMP IC50 values against SSTR5
SSTR3 [3] = target: T3, SSTR3 (Homo sapiens, UniProt P32745); assay: SSTR3 receptor-ligand binding assay, CHO-K1 cell membranes; parameters: expressed in transfected cells; host or cells: CHO-K1 (membranes); conditions: text b424; read-out: Ki values against SSTR3
SSTR3 [4] = target: T3, SSTR3; assay: cAMP functional assay against SSTR3; type: cell-based; conditions: text b428
SSTR2 [5] = target: T4, SSTR2 (Homo sapiens, UniProt P30874); assay: SSTR2 receptor-ligand binding assay, CHO-K1 cell membranes; parameters: expressed in transfected cells; host or cells: CHO-K1 (membranes); conditions: text b424; read-out: Ki values against SSTR2
SSTR5 [6] = target: T2, SSTR5; assay: SSTR5 receptor-ligand binding assay, CHO-K1 cell membranes, 125I-SRIF radioligand; parameters: expressed in transfected cells; host or cells: CHO-K1 (membranes); conditions: text b424; read-out: Ki values against SSTR5
Description: The receptor-ligand binding assays of all 5 subtype of SSTRs were performed with membranes isolated from Chinese hamster ovary (CHO)-K1 cells stably expressing the cloned human somatostatin receptors in 96-well format as previous reported.
The stable cell lines for SSTR1-SSTR5 were developed by stably transfecting with DNA for all five SSTRs using Lipofectamine. […] The assay buffer consisted of 50 mM TrisHCl (pH 7.8) with 1 mM EGTA, 5 mM MgCl2, leupeptin (10 μg/mL), pepstatin (10 μg/mL), bacitracin (200 μg/mL), and aprotinin (0.5 μg/mL). CHO-K1 cell membranes, radiolabeled somatostatin, and unlabeled test compounds were resuspended or diluted in this assay buffer. Unlabeled test compounds were examined over a range of concentrations from 0.01 nM to 10,000 nM.

SSTR1 [7] = target: T1, SSTR1; assay: cAMP functional assay against SSTR1; type: cell-based; conditions: text b428
SSTR4 [8] = target: T5, SSTR4 (Homo sapiens, UniProt P31391); assay: SSTR4 receptor-ligand binding assay, CHO-K1 cell membranes; parameters: expressed in transfected cells; host or cells: CHO-K1 (membranes); conditions: text b424; read-out: Ki values against SSTR4
SSTR2 [9] = target: T4, SSTR2; assay: cAMP functional assay against SSTR2; type: cell-based; conditions: text b428
SSTR4 [10] = target: T5, SSTR4; assay: cAMP functional assay against SSTR4; type: cell-based; conditions: text b428

| Compound | Ki (SSTR1 [1]) | IC50 (SSTR5 [2]) | Ki (SSTR3 [3]) | IC50 (SSTR3 [4]) | Ki (SSTR2 [5]) | Ki (SSTR5 [6]) | IC50 (SSTR1 [7]) | Ki (SSTR4 [8]) | IC50 (SSTR2 [9]) | IC50 (SSTR4 [10]) |
| --- | --- | --- | --- | --- | --- | --- | --- | --- | --- | --- |
| CCOc1cc(CN2CCC3(CC2)CC(=O)N(c2cccc(C(N)=O)c2)C3)cc(OCC)c1-c1ccc(F)cc1 [Example 60] | > 100 nM | 0.1 to 1000 nM | > 100 nM | > 100 nM | > 100 nM | 0.1 to 1000 nM | > 100 nM | > 100 nM | > 100 nM | > 100 nM |
| CCOc1cc(CN2CCC3(CC2)CC(=O)N(c2ccc(C(=O)OC)cc2)C3)cc(OCC)c1-c1ccc(F)cc1 [Example 70] | > 100 nM | 0.1 to 1000 nM | > 100 nM | > 100 nM | > 100 nM | 0.1 to 1000 nM | > 100 nM | > 100 nM | > 100 nM | > 100 nM |
| CCOc1cc(CN2CCC3(CC2)CC(=O)N(c2ccc(C(=O)O)cn2)C3)cc(OCC)c1-c1ccc(F)cc1 [Example 84] | > 100 nM | 0.1 to 1000 nM | > 100 nM | > 100 nM | > 100 nM | 0.1 to 1000 nM | > 100 nM | > 100 nM | > 100 nM | > 100 nM |
| CCOc1cc(CN2CCC3(CC2)CC(=O)N(c2ccc(C(=O)O)nc2)C3)cc(OCC)c1-c1ccc(F)cc1 [Example 85] | > 100 nM | 0.1 to 1000 nM | > 100 nM | > 100 nM | > 100 nM | 0.1 to 1000 nM | > 100 nM | > 100 nM | > 100 nM | > 100 nM |
| Methyl 4-{8-[3,5-bis(cyclopropyloxy)-4-(3,5-difluoropyridin-2-yl)benzyl]-3-oxo-2,8-diazaspiro[4.5]dec-2-yl}benzoate trifluoromethyl acetic acid salt [Example 4] | > 100 nM | 0.1 to 1000 nM | > 100 nM | > 100 nM | > 100 nM | 0.1 to 1000 nM | > 100 nM | > 100 nM | > 100 nM | > 100 nM |
